Test results published in PubChem BioAssay AID2284352 (EPA ToxCast).
This list was built around the results that the source calls inconclusive (neither active nor inactive); the mix of calls is not that of the screen. Where the call is inconclusive, the potency comes from a doubtful curve fit. Calls of active or inactive are those of the source. Rule for the calls: active = hit-call score of the fitted dose curve at least 0.9, where 1 is the maximum; inconclusive = response in the unintended direction; inactive = score below 0.9.

Tested on: rainbow trout Peroxisome Proliferator-activated Receptor gamma (PPARg), gene 110528708
Assay: ATG_rtPPARg_EcoTox2: Attagene TRANS-FACTORIAL EcoTox-2 HepG2 Assay for rainbow trout Peroxisome Proliferator-activated Receptor gamma (PPARg)
Procedure: ATG_EcoTox2 is a cell-based, multiplexed assay created by modifying the existing Attagene TRANS-FACTORIAL system to include a panel of nuclear receptors from some or all the following species: human (Homo sapiens), african clawed frog (Xenopus laevis), rainbow trout (Oncorhynchus mykiss), japanese medaka (Oryzias latipes), and zebrafish (Danio rerio). The ECOTOX2-FACTORIAL format uses HepG2, a human liver cell line, with measurements taken at 24 hours after chemical dosing in a 24-well plate. ATG_rtPPARg_EcoTox2 is one of 29 assay components calculated in the ATG_EcoTox2 assay. It is designed to make measurements of mRNA induction, a form of inducible reporter, as detected with fluorescence intensity signals by Reverse transcription polymerase chain reaction (RT-PCR) and Capillary electrophoresis technology.The assay endpoint ATG_rtPPARg_EcoTox2 was analyzed in the positive analysis fitting direction relative to DMSO as the negative control and baseline of activity. Using a type of inducible reporter, measures of mRNA for gain-of-signal activity can be used to understand the reporter gene at the transcription factor-level as they relate to the gene PPARg. Furthermore, this assay endpoint can be referred to as a primary readout, because this assay has produced multiple assay endpoints where this one serves a reporter gene function. To generalize the intended target to other relatable targets, this assay endpoint is annotated to the nuclear receptor intended target family, where the subfamily is non-steroidal.
Human liver HepG2 cells are transiently transfected with multiple reporter transcription units (MRTUs) in 6-well plates using FuGene 6 reagent (Roche; 3 ml FuGene/1 mg DNA). The MRTU constructs are regulated by a cis-regulating element (promoter). Each RTU expresses a GAL4-UAS that regulates the transcription of a nearby target reporter gene sequence. A major difference between the CIS and TRANS system is that in CIS activities of endogenous TFs are measured, whereas the TRANS assay evaluates changes in activities of exogenous, chimeric NR-Gal4 proteins. […] At the end of 24 hour incubation, total RNA was isolated using TriZol reagent (Invitrogen). The isolated RNA is then reverse-transcribed using oligo(dT) primer and Mo-MLV reverse transcriptase (Invitrogen) with DNAse I (Ambion) treatment for 30 min. The one-tenth of the produced cDNA was amplified by PCR using Taq DNA polymerase (Invitrogen) and two reporter sequence-specific primers. […] The fragments were purified using Qiaquick PCR columns (Qiagen), analyzed on an ABI 3130xL genetic analyzer (Applied Biosystems) with peak positions identified by using a set of X-rhodamine (ROX)-labeled MapMarker1000 molecular weight standards (BioVentures). […]

| Structure (SMILES) | outcome | AC50 |
| --- | --- | --- |
| O=S(=O)(O)C(F)(F)C(F)(F)C(F)(F)C(F)(F)C(F)(F)C(F)(F)F | inactive |  |
| O=P(Oc1ccccc1)(Oc1ccccc1)Oc1ccccc1 |  | inconclusive: 50 µM |
| CCCCOCN(C(=O)CCl)c1c(CC)cccc1CC | inactive |  |
| [Cl][Sn]([c]1ccccc1)([c]1ccccc1)[c]1ccccc1 |  | inconclusive: 1.39 µM |
